Construct, isoform or probe ends are uncertain for at least one entry. At least one result comes from cells or an extract, where the contact may be indirect. No signal at the amounts used counts as a negative. The comparison behind a weaker result is the experiment's own reference, which may not be listed here.
Target: native dIno80 in nuclear extract (UniProt Q9VDY1)
Assay: competition with a labelled probe
Conditions: protein in an extract

Amino acid sequences for entries named in this document (tags omitted).
UniProt Q9VDY1, whole entry: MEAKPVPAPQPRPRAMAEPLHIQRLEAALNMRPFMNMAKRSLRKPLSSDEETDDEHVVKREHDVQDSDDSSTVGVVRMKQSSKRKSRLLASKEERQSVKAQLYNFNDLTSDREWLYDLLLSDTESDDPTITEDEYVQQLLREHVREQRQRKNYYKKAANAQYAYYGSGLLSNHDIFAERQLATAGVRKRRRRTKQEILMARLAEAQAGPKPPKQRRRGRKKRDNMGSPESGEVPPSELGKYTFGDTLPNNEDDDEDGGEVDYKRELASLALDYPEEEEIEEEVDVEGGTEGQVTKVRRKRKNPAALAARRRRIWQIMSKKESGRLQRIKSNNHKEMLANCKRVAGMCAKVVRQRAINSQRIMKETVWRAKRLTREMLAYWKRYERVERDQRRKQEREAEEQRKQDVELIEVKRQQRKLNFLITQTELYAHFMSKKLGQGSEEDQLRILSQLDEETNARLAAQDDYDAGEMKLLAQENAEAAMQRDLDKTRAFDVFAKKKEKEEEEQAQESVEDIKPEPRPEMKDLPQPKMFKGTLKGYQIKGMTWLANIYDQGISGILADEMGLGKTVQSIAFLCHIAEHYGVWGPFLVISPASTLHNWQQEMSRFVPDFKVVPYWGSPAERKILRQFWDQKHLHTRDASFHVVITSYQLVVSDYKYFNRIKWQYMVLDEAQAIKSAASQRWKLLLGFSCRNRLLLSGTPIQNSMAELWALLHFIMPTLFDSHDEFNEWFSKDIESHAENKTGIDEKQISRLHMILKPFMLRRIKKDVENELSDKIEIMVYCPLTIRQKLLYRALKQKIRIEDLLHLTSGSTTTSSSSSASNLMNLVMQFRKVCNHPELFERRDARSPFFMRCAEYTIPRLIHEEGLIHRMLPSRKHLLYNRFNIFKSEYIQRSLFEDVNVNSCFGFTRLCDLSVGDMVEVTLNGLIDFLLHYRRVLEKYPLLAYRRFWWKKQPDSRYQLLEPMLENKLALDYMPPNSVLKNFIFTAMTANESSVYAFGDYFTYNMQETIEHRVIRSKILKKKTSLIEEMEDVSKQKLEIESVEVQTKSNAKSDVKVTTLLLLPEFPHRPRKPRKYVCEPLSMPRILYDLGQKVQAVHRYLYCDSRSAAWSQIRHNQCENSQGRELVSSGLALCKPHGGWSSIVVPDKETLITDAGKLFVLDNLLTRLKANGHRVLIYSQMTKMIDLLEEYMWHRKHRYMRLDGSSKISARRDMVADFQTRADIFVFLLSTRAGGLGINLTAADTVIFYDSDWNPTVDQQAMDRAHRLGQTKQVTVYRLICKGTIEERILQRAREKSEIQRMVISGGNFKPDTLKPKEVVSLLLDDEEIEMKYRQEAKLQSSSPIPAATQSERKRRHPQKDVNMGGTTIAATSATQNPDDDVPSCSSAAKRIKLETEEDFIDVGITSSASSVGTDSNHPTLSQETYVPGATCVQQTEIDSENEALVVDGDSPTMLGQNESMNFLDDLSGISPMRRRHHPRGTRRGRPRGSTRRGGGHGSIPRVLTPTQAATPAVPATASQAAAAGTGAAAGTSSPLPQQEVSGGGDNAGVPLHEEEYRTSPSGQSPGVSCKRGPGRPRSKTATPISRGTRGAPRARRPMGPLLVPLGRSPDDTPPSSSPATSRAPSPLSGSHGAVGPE

Sequence: CCCCCGTGCTACCCCCGTGCTACCCCCGTGCTA (double strand) [Rb (randomized Hs.con, repeated thrice)]
- binding result (vs Cy3-Hs.con, EMSA): no binding

Sequence: CCCCGTCAGCCCCCCGTCAGCCCCCCGTCAGCC (double strand) [Hs.con (3 copies of Ino80 motif, 33-mer)]
- binding result (unlabeled Hs.con vs Cy3-V1, EMSA): binds more weakly
